Assay results from PubChem BioAssay AID624291 (National Center for Advancing Translational Sciences (NCATS), 2012).
Among all 350,000 compounds or so, about 220 (0.063%) were called active. The shares of active, inactive and inconclusive entries below differ from those in the screen. Calls follow the shape of the dose curve; as a rule, active = well fitted activation curve with a large enough effect; inconclusive = small, poorly fitted or top-dose-only effect; inactive = no such curve, though single readings can be large or run the other way. Potencies beside an inconclusive call are fits to weak or partial responses and may not hold up.

Assay: qHTS for Activators of Integrin-Mediated Alleviation for Muscular Dystrophy; also: nearly all actives have a fitted effect of over 60% in size;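 as to activation: 100% = response of the positive control SU9516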
Settings: alpha7betagal myoblasts, beta-gal FDG fluorescence, 48 h; activation: at 38.3 µM (top of the series)
Procedure, shortened: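 Alpha7betagal+/- myoblasts (passage 13) were plated 16-24 hr, then exposed to compounds (1:260 dilution of DMSO stock) for 48 hours at 37C. After MPER lysis, β-galactosidase reporter activity was read as FDG fluorescence (ex 480/em 540) after 30 minutes.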
Potency is read from the fitted curve at half-maximal effect.

SMILES | activation | Potency
CC(=O)N(CCP(=O)(c1ccccc1)c1ccccc1)Cc1ccco1 | inconclusive: 1.47% [activator] | –
CC(=O)N=c1sc2nc3ccccc3nc2n1N(C(C)=O)C(C)=O | inactive: 23.3% | –
CC(=O)N1N=C(c2ccc([N+](=O)[O-])cc2)CC1c1ccccc1Cl (stereo not given) | – | inconclusive: 1.58 µM [activator, partial curve, poor fit]
Cc1nc2cc(N)ccc2n1C1CCCCC1 | – | inconclusive: 10 µM [activator, partial curve]
Cc1ccc(NC(=O)C(C)OC(=O)/C=C/c2ccccc2)cc1 (stereo not given) | – | inconclusive: 2 µM [activator, partial curve, poor fit]
CCNC(=S)NNC(=O)c1csc2c1CCCC2 | inactive: 6.21% | –
O=C(NCCc1ccccc1)/C(=C\c1ccccc1)NC(=O)c1ccco1 | – | inconclusive: 4.47 µM [activator, single point]
O=C(c1ccccc1NS(=O)(=O)c1ccc([N+](=O)[O-])cc1[N+](=O)[O-])N1O[C@@H]2C=C[C@H]1C2 | inactive: -20.5% | –
CC1CCc2c(sc(NC(=O)COC(=O)C3CCCO3)c2C#N)C1 (stereo not given) | – | inconclusive: 5.01 µM [activator, single point]
C=CCn1c(-c2cccn(Cc3ccccc3)c2=O)n[nH]c1=S | inactive: 7.05% | –
COc1ccc(-n2nnnc2S(=O)(=O)Cc2ccc(C(=O)O)cc2)cc1 | inactive: -63.2% | –
N#Cc1ccc(-c2cccnc2)nc1SCC(N)=O | – | inconclusive: 28.2 µM [activator, single point]
COc1ccc2c(c1)O/C(=C\c1ccco1)C2=O | inactive: 7.13% | –
CCOc1cc2[nH]c(=S)n(CCN3CCC(C)CC3)c(=O)c2cc1OCC | – | inconclusive: 3.16 µM [activator, single point]
COc1ccc(C)cc1NC(=O)C1CCN(S(C)(=O)=O)CC1 | inactive: -17.5% | –
N#C/C(=C\c1ccccc1[N+](=O)[O-])C(=O)NCc1ccccc1 | inactive: -21.2% | –
Cc1cccc(C(=O)Oc2c(Br)cc(Br)cc2/C=N/NC(=O)c2ccncc2)c1 | – | inconclusive: 3.55 µM [activator, single point]
CCOc1ccc(S(=O)(=O)Nc2cccc(C(=O)NCCCn3ccnc3)c2)cc1 | – | inconclusive: 31.6 µM [activator, partial curve, poor fit]
CC(=O)c1ccc(NC(=S)NNC(=O)NC2CCCCC2)cc1 | inactive: 8.78% | –
CC(C)NC(=O)C1=NN(c2ccccc2)C(=O)CC1 | – | inconclusive: 31.6 µM [activator, single point]
CCOC(=O)COc1ccc2c(=O)c(-c3ccccc3)coc2c1 | – | inconclusive: 1.12 µM [activator, partial curve, poor fit]
N=c1c2c(-c3ccccc3)c(-c3ccccc3)n(Cc3ccco3)c2ncn1Cc1ccccc1 | inactive: 22.9% | –
CC(C)(CO)CN1CCC(n2nccc2NC(=O)C2CCCC2)CC1 | – | inconclusive: 4.47 µM [activator, single point]
O=C(Oc1ccc(Br)cc1)c1n[nH]c(=O)c2ccccc12 | – | inconclusive: 0.891 µM [activator, full curve, poor fit]

SMILES | activation | Potency
CCNC(=O)NC(=O)COc1ccccc1C#N | – | inconclusive: 7.08 µM [activator, partial curve, poor fit]
O=c1c2ccccc2nnn1CSc1nnc(COc2ccc(Cl)cc2)n1Cc1ccco1 | – | inconclusive: 0.355 µM [activator, full curve, poor fit]
O=[N+]([O-])c1cc(Cl)ccc1NCCc1ccccn1 | – | inconclusive: 2.51 µM [activator, single point]
O=C(CCC(=O)c1ccccc1)Nc1ccc(C(=O)O)cc1 | – | inconclusive: 2.82 µM [activator, single point]
COc1ccccc1N1CCN(/N=C/c2cccc(OC)c2OC)CC1 | inactive: -20.1% | –
Cc1cccc(Nc2nc(N)c([N+](=O)[O-])c(N3CC(C)CC(C)C3)n2)c1 (stereo not given) | – | inconclusive: 14.1 µM [activator, single point]
Cc1ccc(NC(=O)C(Cc2ccccc2)N2C(=O)C3C4CCC(C4)C3C2=O)cc1Cl (stereo not given) | – | inconclusive: 17.8 µM [activator, single point]
CC(C)n1ncc2c(C(=O)NCC(=O)Nc3ccccc3Br)cc(C3CC3)nc21 | – | inconclusive: 11.2 µM [activator, single point]
Cc1cccc(Sc2nc(-c3ccccc3)ncc2C(=O)O)c1 | – | inconclusive: 12.6 µM [activator, single point]
COC(=O)c1c(NC(=O)C(Cl)Cl)sc2c1C(C(=O)OC)CC2 (stereo not given) | inactive: 13.7% | –
COc1ccc(C2C(C#N)=C(C)NC(C)=C2C(=O)OC(C)C)c(OC)c1 (stereo not given) | – | inconclusive: 5.01 µM [activator, single point]
CN(C)c1ccc(/C=C2\N=C(C(C)(C)C)OC2=O)cc1 | – | inconclusive: 11.2 µM [activator, single point]
CCc1nnc(/N=C/c2c(O)n(-c3ccc(Cl)cn3)c(=O)c3ccccc23)s1 | – | inconclusive: 5.01 µM [activator, single point]
CCNC(=O)c1ccc(CSc2ccc(Cl)cc2)cc1 | – | inconclusive: 2.82 µM [activator, partial curve, poor fit]
O=C(Cc1ccc(F)cc1)Nc1nccs1 | – | inconclusive: 5.01 µM [activator, single point]
O=C(CSc1nnc(C2CC2)n1-c1ccccc1)N1CCNC1=O | – | inconclusive: 7.94 µM [activator, partial curve, poor fit]
Cc1ccccc1C(=O)Nc1ccc(N2CCN(C)CC2)nc1 | – | inconclusive: 31.6 µM [activator, single point]
CCOC(=O)c1c(C)n(C)c2ccc(OCC(O)Cn3nc(C)cc3C)cc12 (stereo not given) | inactive: -11.6% | –
Cc1cccc(-c2noc(CNC(=O)COc3ccccc3C)n2)c1 | – | inconclusive: 28.2 µM [activator, single point]
C[C@@H]1CCCCO[C@H](CN(C)Cc2ccc(C(=O)O)cc2)[C@@H](C)CN([C@H](C)CO)C(=O)c2cc(NC(=O)CCC(F)(F)F)ccc2O1 | inactive: -16.2% | –
NC(=O)Cn1c(=O)n(CC(=O)N2CCCCC2)c(=O)c2sccc21 | – | inconclusive: 5.01 µM [activator, single point]
C[C@@H]1CN([C@H](C)CO)C(=O)CCCn2nncc2CO[C@@H]1CN(C)C(=O)NC1CCCCC1 | inactive: -3.82% | –
CSc1ccc(NC(=O)NCc2cccnc2)cc1 | – | inconclusive: 5.01 µM [activator, single point]
O=C(COc1cc2oc(=O)c3c(c2cc1Cl)CCCC3)NCC1CCC(C(=O)O)CC1 (stereo not given) | – | active: 7.08 µM

SMILES | activation | Potency
O=C(CN(C(=O)c1csnn1)c1cccc(F)c1)NC1CCCC1 | inactive: 24.5% | –
O=C(Nc1ccccc1)c1ccccc1N=Cc1ccccc1O | inactive: 23.9% | –
COc1ccc(C)cc1N(C)C(=O)Cc1c(C(=O)O)n(C)c2ccccc12 | – | inconclusive: 3.55 µM [activator, partial curve]
CC(=O)CSc1ncnc2c1cnn2-c1ccccc1 | – | inconclusive: 3.16 µM [activator, single point]
O=C(COC(=O)/C=C/c1ccccc1)NC1CCS(=O)(=O)C1 (stereo not given) | – | inconclusive: 1.41 µM [activator, partial curve, poor fit]
COc1ccccc1CC(=O)Nc1cc(S(=O)(=O)N2CCOCC2)ccc1N1CCOCC1 | – | inconclusive: 12.6 µM [activator, partial curve, poor fit]
CC(=O)Nc1ccc(NC(=O)CSc2nnc(NC(=O)C3CC3)s2)cc1 | – | inconclusive: 2.82 µM [activator, partial curve, poor fit]
CCOc1ccccc1NC(=O)c1cccnc1 | – | inconclusive: 3.16 µM [activator, full curve]
O=S(=O)(NCc1ccccc1)c1cccs1 | inactive: -24.8% | –
COc1cc(/C=C2\SC(=O)N(CC(=O)Nc3cccc(C)c3)C2=O)cc([N+](=O)[O-])c1O | inactive: -10.1% | –
COc1ccccc1NC(=S)NNC(=S)Nc1ccc(OC(F)F)cc1 | – | inconclusive: 28.2 µM [activator, single point]
COc1ccc(OCc2nnc(SCC(=O)Nc3cccc(C(C)=O)c3)o2)cc1 | – | inconclusive: 1.26 µM [activator, partial curve, poor fit]
COc1cccc(C2=CC(=O)CC(c3ccco3)C2)c1 (stereo not given) | inactive: -8.9% | –
CC(=O)c1ccc(NC(=S)NC(=O)/C=C/c2ccco2)cc1 | – | inconclusive: 11.2 µM [activator, partial curve, poor fit]
CCc1nnc(NS(=O)(=O)c2ccc(NS(=O)(=O)c3ccccc3[N+](=O)[O-])cc2)s1 | – | inconclusive: 2.82 µM [activator, single point]
Cc1ccccc1NC(=O)CNC(=O)N1CC(=O)Nc2ccccc21 | inactive: 0.791% | –
O=CN1CCN(C(=O)COc2ccc(Cl)cc2Br)CC1 | – | inconclusive: 31.6 µM [activator, partial curve, poor fit]
CCCCn1c(SCC(=O)/C(C#N)=C(\C)N)nc2ccccc2c1=O | inactive: 20% | –
CCN(CC)CCN1C(=O)C(=O)/C(=C(/O)c2ccc(S(=O)(=O)N3CCOCC3)cc2)C1c1ccc(C)cc1 (stereo not given) | inactive: 24.7% | –
O=C(CSc1nnc(Cn2nnc3ccccc32)o1)Nc1cccc(Cl)c1 | inactive: -13.8% | –
O=C(c1cccs1)N1CCc2c([nH]c3ccccc23)C1c1ccccn1 (stereo not given) | – | inconclusive: 3.55 µM [activator, partial curve, poor fit]
COc1ccccc1NC(=S)NC1CCCCCCCCCCC1 | – | inconclusive: 1.26 µM [activator, partial curve, poor fit]

Pulled by compound from above (3):
SMILES | activation | Potency
CC(=O)c1ccc(NC(=S)NC(=O)/C=C/c2ccco2)cc1 | – | inconclusive: 11.2 µM [activator, partial curve, poor fit]
COc1ccccc1CC(=O)Nc1cc(S(=O)(=O)N2CCOCC2)ccc1N1CCOCC1 | – | inconclusive: 12.6 µM [activator, partial curve, poor fit]
CCc1nnc(NS(=O)(=O)c2ccc(NS(=O)(=O)c3ccccc3[N+](=O)[O-])cc2)s1 | – | inconclusive: 2.82 µM [activator, single point]
